The list shows a part of the results.

Chains of the proteins cited; added tags and fusions are not shown.
UniProt Q0JBA9, entry or part of it: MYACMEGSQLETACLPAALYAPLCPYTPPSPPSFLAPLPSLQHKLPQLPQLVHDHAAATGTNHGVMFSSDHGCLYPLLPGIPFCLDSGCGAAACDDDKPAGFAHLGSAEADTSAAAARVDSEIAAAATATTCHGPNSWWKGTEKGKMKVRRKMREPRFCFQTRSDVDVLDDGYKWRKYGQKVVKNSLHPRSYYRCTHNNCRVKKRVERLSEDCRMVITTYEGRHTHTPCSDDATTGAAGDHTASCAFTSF

This test deals with OsWRKY34 (Oryza sativa, UniProt Q0JBA9 1-250). Put plainly: protein-binding microarray (RPBM); PBS, 2% BSA, 51.3 ng/ul salmon testes DNA, 50 uM zinc acetate, 200 nM TF, 25 C, 1 h; high values mean tight binding. To be noted: protein: recombinant; tags: N-terminal polyhistidine and DsRed monomer fusion (pET32a); label: CyDye5-dUTP incorporated in the synthesized complementary strand; 3' TTTTT single-stranded linker to array surface; dsDNA, one strand shown. The gist of the method: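 Using Ni–NTA, transcription factors fused N-terminally to polyhistidine and DsRed were purified after expression in E. coli BL21-CodonPlus. These were incubated at 200 nM with a blocked, double-stranded custom Agilent array for 1 h at 25 °C in a buffer containing 50 µM zinc acetate, and the array was washed. The binding signal is per-feature fluorescence intensity (arbitrary units) on an Axon 4000B scanner.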
As to “ACCAAGGGGCCTGAACCAATATAATCCTTGTCTTATGTTTCGGAGTCACCTAGTGCAG”, the binding signal is 8040 fluorescence intensity (a.u.). On to “TTGTTTATTTAAGGTGTGATTGTATTTGGATCATGTTTTGCGGAGTCACCTAGTGCAG”, for which the binding signal was 8980 fluorescence intensity (a.u.). Consider “GTGGAGTGCGGTGGACGGAGCGGCGGGGCGGGGCGGTCAGCGGAGTCACCTAGTGCAG”, for which the binding signal was 16700 fluorescence intensity (a.u.). With “TCCTCTGGCTTTCTTTTCCCATTTCGTCTCTTGTTTGTTTCGGAGTCACCTAGTGCAG”, the binding signal was 9160 fluorescence intensity (a.u.).

For “CTCCTCTGCTTCCGATCTGCGCCGCCGCGGCGGGAGGGTCCGGAGTCACCTAGTGCAG”, the binding signal is 8690 fluorescence intensity (a.u.).

Turning to “AATTAGATTTCCCAGTACAGATTGTCGGTCAAAGTTTGGCCGGAGTCACCTAGTGCAG”, the binding signal is 8640 fluorescence intensity (a.u.). Consider “TCTGCACATCCATCGACACAAAGTCTCAAGTTGTTGCGCGCGGAGTCACCTAGTGCAG”, for which the binding signal is 10300 fluorescence intensity (a.u.). The same measure for “CATGTGTTAAAAAGTCAACGGTGTCAAATATTTTAAAACACGGAGTCACCTAGTGCAG”: 9250 fluorescence intensity (a.u.); for “GTGGATTGCATGATGAATCCTTTTGCACAATTGTTTGGCCCGGAGTCACCTAGTGCAG”: 8490 fluorescence intensity (a.u.); for “TGTCCACACTTCCCAACTCATTAAATAGTTTGTTTTTTGACGGAGTCACCTAGTGCAG”: 8320 fluorescence intensity (a.u.). The same measure for “GGAAGAGATTTTTCATGTGTTACAATATACTACTCCCTCCCGGAGTCACCTAGTGCAG”: 12100 fluorescence intensity (a.u.); for “TCTTTCGCGTTTTTTATGGTGTGTTTTCTTTTCCGCGTGCCGGAGTCACCTAGTGCAG”: 10500 fluorescence intensity (a.u.); for “AAGAGATTTCTTCAACCTGCATACTAGGTTCTCTTTTCCACGGAGTCACCTAGTGCAG”: 8270 fluorescence intensity (a.u.).

“GACGCATCCGCACTCCACTCCACTCCACTCCACTCCACTGCGGAGTCACCTAGTGCAG”: the binding signal is 8230 fluorescence intensity (a.u.). Regarding “CCATACCACCGTTTTTCTCGTGATGTCATATCTTCAGGTTCGGAGTCACCTAGTGCAG”, the binding signal is 9930 fluorescence intensity (a.u.). The figure for “TATCCTATCCTACGTTTGTTGCTCGGTTGCTTCTCTTCTTCGGAGTCACCTAGTGCAG” is 13700 fluorescence intensity (a.u.); for “ATCATTCCCCACACCACAAGGCCTCAAGTAATTCACAGTTCGGAGTCACCTAGTGCAG” it is 8970 fluorescence intensity (a.u.). For the sequence “TTGCGCTTACGTTTGGTGTTTGTGTTTTACGAGATGCATTCGGAGTCACCTAGTGCAG”, the binding signal is 9340 fluorescence intensity (a.u.). The same measure for “CGGACATTTTCACCGCCACACTGATTTGTGGCGCGCCACTCGGAGTCACCTAGTGCAG”: 9290 fluorescence intensity (a.u.). The same measure for “CTTAATAAATTTGTCTCTCGATTTTCTTACGGATTATGTACGGAGTCACCTAGTGCAG”: 8760 fluorescence intensity (a.u.); for “TTCTCTGACTACCGGTCCCACCTGTCATCGACCTGCGCTCCGGAGTCACCTAGTGCAG”: 8510 fluorescence intensity (a.u.). For “CCATGCCCACTGTGGTATAGCTCCTTGGATCTGGTTATGTCGGAGTCACCTAGTGCAG”, the binding signal is 9530 fluorescence intensity (a.u.). The figure for “TGTTGTTTTGGTCTACAGTTGTCTTTTGAGTTGTTGTATTCGGAGTCACCTAGTGCAG” is 12200 fluorescence intensity (a.u.). With “CGCGCGACGTTCTTTCCGTTTTCCGTTTGCCACGAATTCACGGAGTCACCTAGTGCAG”, the binding signal is 8990 fluorescence intensity (a.u.). The figure for “ATAGTTGTTTGGCCTTTTACTAATATTGTGTCCATGGATGCGGAGTCACCTAGTGCAG” is 8270 fluorescence intensity (a.u.). The same measure for “CTGGAGGATCCTATTGTGCTTACCCTGATTTTCATCCCTCCGGAGTCACCTAGTGCAG”: 10900 fluorescence intensity (a.u.); for “CCGCCCGCCAGTGTGCTCCTCGTTGGCTCGATTGCTCATTCGGAGTCACCTAGTGCAG”: 8480 fluorescence intensity (a.u.); for “TTTTTTCGGCTTACTGCACATTTGTAACCTGCAGTCCTTCCGGAGTCACCTAGTGCAG”: 9490 fluorescence intensity (a.u.). With “ACCTCGTTTTCTGGTCACAGTTTCCTTTTGTGTGAAAAACCGGAGTCACCTAGTGCAG”, the binding signal is 9370 fluorescence intensity (a.u.). For “TCTGGTGATTCCCGGCCTCCTCGATTGCTCGCCCGCGCGGCGGAGTCACCTAGTGCAG”, the binding signal was 8370 fluorescence intensity (a.u.).

As for “ATTTGAAATTTAAATTTTAGCTTTTGCTTTAGTTTATTTGCGGAGTCACCTAGTGCAG”, the binding signal is 9680 fluorescence intensity (a.u.). The figure for “CGTGCCGCTGCCGTCGCGCACTGCCCGTTGACGCACGCCTCGGAGTCACCTAGTGCAG” is 9740 fluorescence intensity (a.u.). The same measure for “ACCTTCGCTAAGCTAATTCCGCGCCTACTCCACCCGTCACCGGAGTCACCTAGTGCAG”: 11200 fluorescence intensity (a.u.). Regarding “CAGGAATAGACCTGTATCTTTGTTTTGTTGTCTGAAACTTCGGAGTCACCTAGTGCAG”, the binding signal was 8760 fluorescence intensity (a.u.). The figure for “AGACGAGACCGACCCACCGCACCGCGCCGCACTTGCGCCACGGAGTCACCTAGTGCAG” is 9900 fluorescence intensity (a.u.).

With “TTTCTTGGCTGGTTTGGTTGTGGATTGGATTGGATTGGGTCGGAGTCACCTAGTGCAG”, the binding signal is 16100 fluorescence intensity (a.u.). The same measure for “TCCCCGCTACTCCGCTAGTAATCGCAACGCGAGCGTTCCTCGGAGTCACCTAGTGCAG”: 10000 fluorescence intensity (a.u.); for “ACAACCTCCCGCCTCTTGGTTTCCCCAATCTCCCGCGCGCCGGAGTCACCTAGTGCAG”: 8680 fluorescence intensity (a.u.). The figure for “TTTTTTATCGTAGTTTATTTTTCAGTTTTTGCTTTTAGATCGGAGTCACCTAGTGCAG” is 9270 fluorescence intensity (a.u.). Regarding “TACTATTTATTTATTATCACTGTATGCGTCTATGCACTTCCGGAGTCACCTAGTGCAG”, the binding signal is 11100 fluorescence intensity (a.u.). Regarding “ATCCCAGCCCAGCCCGCTTGCTCCCTTTGCTTGCCTGTCTCGGAGTCACCTAGTGCAG”, the binding signal is 9930 fluorescence intensity (a.u.). Take “GATTTGATGGATTTGTTGAGAGATATGCTTCTTAAGCCAACGGAGTCACCTAGTGCAG”: the binding signal was 8300 fluorescence intensity (a.u.).

Values taken from article PMC7819943, “Rice protein-binding microarrays: a tool to detect cis-acting elements near promoter regions in rice”.
